Measured values taken from the supplement of paper PMC11006884.
The list shows a part of the results, in another mix than the full data.

By UniProt entry, the sequences of proteins in these tests, tags left out. Where a name states a change or a piece, a line headed by the entry shows the natural chain unless it says otherwise.
UniProt P11586, whole entry, looked up: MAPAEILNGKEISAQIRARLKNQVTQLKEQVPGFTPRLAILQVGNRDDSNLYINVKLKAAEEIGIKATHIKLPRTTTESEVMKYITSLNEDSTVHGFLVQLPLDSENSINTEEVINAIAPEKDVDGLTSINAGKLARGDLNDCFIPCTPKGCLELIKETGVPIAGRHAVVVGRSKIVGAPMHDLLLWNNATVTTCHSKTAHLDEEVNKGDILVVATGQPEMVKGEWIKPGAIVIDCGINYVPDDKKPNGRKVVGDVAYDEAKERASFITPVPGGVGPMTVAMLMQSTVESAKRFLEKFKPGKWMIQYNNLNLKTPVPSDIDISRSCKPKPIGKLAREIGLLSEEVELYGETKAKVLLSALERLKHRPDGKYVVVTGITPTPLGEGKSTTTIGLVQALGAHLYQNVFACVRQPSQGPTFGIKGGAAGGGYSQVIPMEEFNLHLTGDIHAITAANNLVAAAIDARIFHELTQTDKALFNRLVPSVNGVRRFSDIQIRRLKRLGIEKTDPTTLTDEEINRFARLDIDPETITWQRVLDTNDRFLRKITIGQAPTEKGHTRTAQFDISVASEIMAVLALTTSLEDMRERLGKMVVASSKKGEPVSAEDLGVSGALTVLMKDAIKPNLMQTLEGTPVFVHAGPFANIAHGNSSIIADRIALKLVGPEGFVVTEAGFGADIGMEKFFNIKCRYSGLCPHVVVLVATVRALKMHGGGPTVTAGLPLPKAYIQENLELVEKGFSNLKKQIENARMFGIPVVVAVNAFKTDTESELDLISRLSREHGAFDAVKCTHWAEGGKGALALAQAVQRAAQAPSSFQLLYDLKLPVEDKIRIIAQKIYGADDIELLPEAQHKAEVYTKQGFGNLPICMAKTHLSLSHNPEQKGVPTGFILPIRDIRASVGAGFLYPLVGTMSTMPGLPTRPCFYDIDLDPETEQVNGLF
UniProt P12004, whole entry, looked up: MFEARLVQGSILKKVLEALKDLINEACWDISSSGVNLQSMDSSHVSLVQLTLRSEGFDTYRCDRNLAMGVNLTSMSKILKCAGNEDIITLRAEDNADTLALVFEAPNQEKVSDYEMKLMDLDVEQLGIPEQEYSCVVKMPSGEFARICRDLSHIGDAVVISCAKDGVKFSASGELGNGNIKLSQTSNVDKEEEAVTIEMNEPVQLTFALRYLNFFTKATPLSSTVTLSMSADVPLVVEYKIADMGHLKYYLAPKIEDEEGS
UniProt P16615: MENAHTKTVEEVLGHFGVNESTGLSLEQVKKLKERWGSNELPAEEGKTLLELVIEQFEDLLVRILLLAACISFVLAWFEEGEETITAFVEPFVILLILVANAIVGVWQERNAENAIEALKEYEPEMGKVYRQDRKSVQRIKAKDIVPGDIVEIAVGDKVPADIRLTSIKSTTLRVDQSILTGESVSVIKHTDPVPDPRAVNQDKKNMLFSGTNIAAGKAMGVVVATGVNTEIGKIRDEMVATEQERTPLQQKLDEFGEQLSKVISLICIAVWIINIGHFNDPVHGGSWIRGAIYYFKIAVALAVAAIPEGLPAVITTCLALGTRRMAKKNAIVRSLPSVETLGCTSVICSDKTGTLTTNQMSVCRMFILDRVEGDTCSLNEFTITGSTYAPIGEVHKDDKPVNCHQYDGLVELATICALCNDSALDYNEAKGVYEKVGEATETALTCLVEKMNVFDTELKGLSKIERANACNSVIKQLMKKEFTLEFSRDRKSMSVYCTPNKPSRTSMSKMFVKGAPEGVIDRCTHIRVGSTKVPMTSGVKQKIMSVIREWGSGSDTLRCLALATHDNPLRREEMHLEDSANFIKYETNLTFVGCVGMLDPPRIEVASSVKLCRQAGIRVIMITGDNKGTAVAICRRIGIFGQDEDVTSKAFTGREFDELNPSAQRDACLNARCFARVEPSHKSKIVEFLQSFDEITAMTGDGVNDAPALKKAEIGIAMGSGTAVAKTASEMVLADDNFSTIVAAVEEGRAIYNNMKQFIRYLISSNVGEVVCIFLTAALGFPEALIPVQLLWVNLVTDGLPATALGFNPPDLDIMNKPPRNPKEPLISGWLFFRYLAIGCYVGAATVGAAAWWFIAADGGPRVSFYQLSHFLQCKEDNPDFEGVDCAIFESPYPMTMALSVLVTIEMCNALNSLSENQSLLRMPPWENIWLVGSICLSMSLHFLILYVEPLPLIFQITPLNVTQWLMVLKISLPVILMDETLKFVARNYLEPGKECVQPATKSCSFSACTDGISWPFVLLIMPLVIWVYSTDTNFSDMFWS
UniProt P17844: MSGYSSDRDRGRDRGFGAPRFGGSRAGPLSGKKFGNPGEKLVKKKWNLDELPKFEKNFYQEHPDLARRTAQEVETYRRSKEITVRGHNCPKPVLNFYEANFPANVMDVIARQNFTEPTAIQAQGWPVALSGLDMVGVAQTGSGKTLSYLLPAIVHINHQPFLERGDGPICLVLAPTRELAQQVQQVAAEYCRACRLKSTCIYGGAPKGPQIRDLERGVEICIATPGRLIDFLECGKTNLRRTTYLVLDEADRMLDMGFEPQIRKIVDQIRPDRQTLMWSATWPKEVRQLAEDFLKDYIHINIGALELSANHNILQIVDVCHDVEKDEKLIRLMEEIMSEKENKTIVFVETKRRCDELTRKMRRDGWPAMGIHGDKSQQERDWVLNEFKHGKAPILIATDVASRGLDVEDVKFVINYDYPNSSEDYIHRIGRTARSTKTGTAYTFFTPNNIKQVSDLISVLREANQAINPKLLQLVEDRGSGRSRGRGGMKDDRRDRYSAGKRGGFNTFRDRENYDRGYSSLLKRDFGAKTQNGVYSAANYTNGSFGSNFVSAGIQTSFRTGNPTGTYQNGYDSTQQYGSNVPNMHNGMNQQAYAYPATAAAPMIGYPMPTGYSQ
UniProt P11387: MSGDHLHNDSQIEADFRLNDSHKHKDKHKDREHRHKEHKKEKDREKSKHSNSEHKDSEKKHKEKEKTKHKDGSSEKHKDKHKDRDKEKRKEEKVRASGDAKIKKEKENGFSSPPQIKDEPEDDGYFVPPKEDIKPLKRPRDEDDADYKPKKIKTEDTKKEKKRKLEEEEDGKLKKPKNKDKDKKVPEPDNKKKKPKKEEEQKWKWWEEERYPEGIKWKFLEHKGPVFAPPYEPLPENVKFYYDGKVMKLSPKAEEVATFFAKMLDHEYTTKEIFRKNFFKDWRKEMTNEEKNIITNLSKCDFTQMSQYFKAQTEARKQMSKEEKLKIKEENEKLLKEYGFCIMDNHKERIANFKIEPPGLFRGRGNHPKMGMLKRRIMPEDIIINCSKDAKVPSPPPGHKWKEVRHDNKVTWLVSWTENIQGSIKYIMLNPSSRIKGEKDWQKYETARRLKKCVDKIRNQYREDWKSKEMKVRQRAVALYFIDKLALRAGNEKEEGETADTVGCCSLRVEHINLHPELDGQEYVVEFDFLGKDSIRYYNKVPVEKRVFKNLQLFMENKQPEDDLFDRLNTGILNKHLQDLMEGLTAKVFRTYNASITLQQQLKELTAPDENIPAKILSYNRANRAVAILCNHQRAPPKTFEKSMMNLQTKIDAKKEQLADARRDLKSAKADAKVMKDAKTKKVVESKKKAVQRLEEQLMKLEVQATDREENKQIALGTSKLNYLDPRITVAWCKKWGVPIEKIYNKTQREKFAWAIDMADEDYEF
UniProt P14866: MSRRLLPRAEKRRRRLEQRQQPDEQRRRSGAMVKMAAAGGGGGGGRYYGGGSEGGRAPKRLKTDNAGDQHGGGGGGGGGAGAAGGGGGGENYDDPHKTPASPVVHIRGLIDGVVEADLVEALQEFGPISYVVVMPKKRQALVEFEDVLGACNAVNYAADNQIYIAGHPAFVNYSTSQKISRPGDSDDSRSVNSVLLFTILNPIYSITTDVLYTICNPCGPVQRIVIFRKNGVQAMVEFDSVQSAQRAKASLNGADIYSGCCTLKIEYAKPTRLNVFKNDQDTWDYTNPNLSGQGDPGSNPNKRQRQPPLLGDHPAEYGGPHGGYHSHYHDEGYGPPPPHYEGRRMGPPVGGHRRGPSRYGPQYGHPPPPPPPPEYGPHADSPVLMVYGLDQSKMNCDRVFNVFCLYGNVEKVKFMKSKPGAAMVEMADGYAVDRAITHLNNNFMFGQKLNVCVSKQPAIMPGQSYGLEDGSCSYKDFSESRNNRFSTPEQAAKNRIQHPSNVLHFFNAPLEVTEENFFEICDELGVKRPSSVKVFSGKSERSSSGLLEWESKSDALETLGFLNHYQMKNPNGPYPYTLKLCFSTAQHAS
UniProt P12955: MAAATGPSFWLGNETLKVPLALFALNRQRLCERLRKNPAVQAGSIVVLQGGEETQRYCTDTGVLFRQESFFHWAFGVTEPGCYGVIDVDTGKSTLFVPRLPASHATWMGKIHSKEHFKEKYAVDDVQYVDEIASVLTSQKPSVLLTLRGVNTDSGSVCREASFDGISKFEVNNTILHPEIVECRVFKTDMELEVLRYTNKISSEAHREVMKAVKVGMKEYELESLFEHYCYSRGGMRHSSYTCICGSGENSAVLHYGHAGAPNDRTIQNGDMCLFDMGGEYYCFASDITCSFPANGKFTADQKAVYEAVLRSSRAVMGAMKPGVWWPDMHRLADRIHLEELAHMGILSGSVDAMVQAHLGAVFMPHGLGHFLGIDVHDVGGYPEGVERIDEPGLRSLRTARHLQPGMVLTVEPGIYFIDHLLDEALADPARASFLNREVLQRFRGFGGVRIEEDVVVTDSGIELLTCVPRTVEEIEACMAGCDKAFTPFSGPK
UniProt P09382, whole entry, looked up: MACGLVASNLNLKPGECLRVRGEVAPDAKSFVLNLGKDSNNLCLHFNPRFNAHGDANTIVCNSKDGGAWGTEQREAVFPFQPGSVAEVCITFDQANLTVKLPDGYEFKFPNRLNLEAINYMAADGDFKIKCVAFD
UniProt P10809, whole entry, looked up: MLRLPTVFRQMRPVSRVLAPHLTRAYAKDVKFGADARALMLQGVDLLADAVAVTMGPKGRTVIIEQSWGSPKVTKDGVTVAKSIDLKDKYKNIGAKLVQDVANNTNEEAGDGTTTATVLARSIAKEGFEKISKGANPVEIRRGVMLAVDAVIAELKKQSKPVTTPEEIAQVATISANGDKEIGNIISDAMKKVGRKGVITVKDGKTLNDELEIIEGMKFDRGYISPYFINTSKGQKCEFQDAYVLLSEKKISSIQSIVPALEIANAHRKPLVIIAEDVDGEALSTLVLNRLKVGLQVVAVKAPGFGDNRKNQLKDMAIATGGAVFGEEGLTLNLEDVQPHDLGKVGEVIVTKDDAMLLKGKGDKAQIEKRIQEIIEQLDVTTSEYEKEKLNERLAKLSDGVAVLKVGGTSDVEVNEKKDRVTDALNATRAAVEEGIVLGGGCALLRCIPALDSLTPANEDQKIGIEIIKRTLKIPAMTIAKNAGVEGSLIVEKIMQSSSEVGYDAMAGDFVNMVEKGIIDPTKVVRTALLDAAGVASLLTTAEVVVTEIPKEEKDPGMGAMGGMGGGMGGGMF
UniProt P16152: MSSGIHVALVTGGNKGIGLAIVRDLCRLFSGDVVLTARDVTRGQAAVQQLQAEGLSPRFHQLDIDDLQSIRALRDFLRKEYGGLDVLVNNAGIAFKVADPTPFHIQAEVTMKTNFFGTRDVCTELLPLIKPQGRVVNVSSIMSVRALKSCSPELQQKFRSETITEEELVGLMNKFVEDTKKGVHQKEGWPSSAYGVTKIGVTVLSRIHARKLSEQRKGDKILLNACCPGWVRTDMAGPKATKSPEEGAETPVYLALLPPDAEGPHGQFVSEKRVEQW
UniProt P11142, whole entry, looked up: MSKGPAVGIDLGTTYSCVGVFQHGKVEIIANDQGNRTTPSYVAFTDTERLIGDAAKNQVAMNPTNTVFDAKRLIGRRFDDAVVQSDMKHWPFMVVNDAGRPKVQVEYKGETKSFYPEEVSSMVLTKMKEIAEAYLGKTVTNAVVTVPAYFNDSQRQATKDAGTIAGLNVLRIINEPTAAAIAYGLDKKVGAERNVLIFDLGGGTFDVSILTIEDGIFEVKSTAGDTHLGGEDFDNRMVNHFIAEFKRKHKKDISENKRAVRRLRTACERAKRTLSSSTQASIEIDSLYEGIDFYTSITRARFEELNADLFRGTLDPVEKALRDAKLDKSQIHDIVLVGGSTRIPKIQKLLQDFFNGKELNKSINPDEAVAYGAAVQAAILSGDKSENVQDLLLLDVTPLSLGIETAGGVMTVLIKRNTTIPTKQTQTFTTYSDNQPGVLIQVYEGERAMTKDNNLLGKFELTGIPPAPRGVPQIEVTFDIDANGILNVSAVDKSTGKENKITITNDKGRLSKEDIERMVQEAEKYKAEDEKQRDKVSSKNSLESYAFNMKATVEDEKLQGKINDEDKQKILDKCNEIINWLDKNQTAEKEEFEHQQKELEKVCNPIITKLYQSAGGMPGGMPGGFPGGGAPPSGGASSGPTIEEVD
UniProt P09234, whole entry, looked up: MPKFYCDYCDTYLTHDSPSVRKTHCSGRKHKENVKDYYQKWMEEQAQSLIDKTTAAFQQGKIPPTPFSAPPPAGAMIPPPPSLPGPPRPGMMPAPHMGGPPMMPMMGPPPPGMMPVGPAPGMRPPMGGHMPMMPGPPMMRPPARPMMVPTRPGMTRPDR

Each target was assayed with COC(=O)C#Cc1ccccc1 [methyl 3-phenylpropiolate] (assay: log2 ratio of iodoacetamide-alkyne labeling of the cysteine site, DMSO over compound (competition); higher = stronger covalent engagement of the cysteine by the compound, active = 1 or more). Conditions: 500 µM; treatment time 1 h; system: HEK293T cell lysate.
How it was run: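 For each cysteine, the log2 competition ratio is mean control-channel reporter intensity over mean compound-channel reporter intensity. HEK293T lysate (2 mg/mL) was exposed to vehicle or electrophile (500 µM, 1 h, ambient temperature), labelled with iodoacetamide alkyne (1 h), clicked to sCIP-TMT reagents, digested overnight with trypsin at 37 °C, streptavidin-enriched and analysed by Orbitrap Eclipse LC-MS/MS with FAIMS and FragPipe. Cysteines quantified in only one of three replicates, each with duplicate channels, were excluded.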

log2 ratio of iodoacetamide-alkyne labeling, inactive:
PABPC1 C128 (UniProt P11940) -0.0389
MTHFD1 C785 (UniProt P11586) -0.0259
IMPDH2 C331 (UniProt P12268) 0.465
PCNA C81 (UniProt P12004) 0.0632
EEF2 C290 (UniProt P13639) 0.0608
ATP2A2 C997 (UniProt P16615) 0.368
DARS C203 (UniProt P14868) 0.147
DDX5 C170 (UniProt P17844) 0.272
CDK4 C78 (UniProt P11802) 0.149
HSP90AA1 C374 (UniProt P07900) -0.0415
MTHFD1 C147 (UniProt P11586) -0.0994
TOP1 C300 (UniProt P11387) -0.0183
HNRNPL C396 (UniProt P14866) -0.354
DSP C1957 (UniProt P15924) 0.655
ALAD C75 (UniProt P13716) -0.37
PEPD C467 (UniProt P12955) 0.341
EEF2 C728 (UniProt P13639) 0.00624
LGALS1 C43 (UniProt P09382) -0.258
HSPD1 C237 (UniProt P10809) 0.358
CBR1 C150 (UniProt P16152) 0.0732
ATF7 C61 (UniProt P17544) 0.484
U2AF1L5 C102 (UniProt P0DN76) 0.445
MTHFD1 C691 (UniProt P11586) 0.242
CLTB C199 (UniProt P09497) 0.549
UniProt P14618_C423 0.112
EEF2 C536 (UniProt P13639) -0.284
EEF2 C651 (UniProt P13639) 0.0919
MTHFD2 C166 (UniProt P13995) 0.25
EEF2 C466 (UniProt P13639) 0.152
PFKM C351 (UniProt P08237) -0.0115
HSPA8 C603 (UniProt P11142) 0.221
EZR C284 (UniProt P15311) -0.0133
EEF2 C41 (UniProt P13639) 0.173
GYS1 C575 (UniProt P13807) 0.416
HSP90AA1 C529 (UniProt P07900) 0.172
SNRPC C25 (UniProt P09234) 0.153

Looked up one by one from the list above (2):
log2 ratio of iodoacetamide-alkyne labeling, inactive:
EEF2 C290 (UniProt P13639) 0.0608
HSPD1 C237 (UniProt P10809) 0.358

Next part.

log2 ratio of iodoacetamide-alkyne labeling, active:
DSP C174 (UniProt P15924) 1.06
